No constants are given. Whether binding was seen depends on the method and setting. In cells and extracts the contact can be indirect. Here binding means that the protein was enriched with, or labelled near, the bait; the list need not be complete.
Experiments:
PrC-CUL3-∆9 (human) = PrC-CUL3-∆9 (human) (UniProt Q13618); test: affinity purification with mass spectrometry; PrC-CUL3-WT or PrC-CUL3-∆9 precipitated with HPC4-sepharose overnight at 4 °C from lysates of tetracycline-induced Flp-In T-REx 293 cells (50 mM HEPES pH 7.5, 150 mM NaCl, 0.5% Nonidet P-40, 2 mM CaCl2); label-free LC-MS/MS, two independent experiments, empty vector as control
PrC-CUL3-WT (human) = PrC-CUL3-WT (human) (UniProt Q13618); test: as above

Row | Binder | binding (PrC-CUL3-∆9 (human)) | binding (PrC-CUL3-WT (human))
1 | ZBTB17 (protein, UniProt Q13105 1-803) MDFPQHSQHVLEQLNQQRQLGLLCDCTFVVDGVHFKAHKAVLAACSEYFKMLFVDQKDVVHLDISNAAGLGQVLEFMYTAKLSLSPENVDDVLAVATFLQMQDIITACHALKSLAEPATSPGGNAEALATEGGDKRAKEEKVATSTLSRLEQAGRSTPIGPSRDLKEERGGQAQSAASGAEQTEKADAPREPPPVELKPDPTSGMAAAEAEAALSESSEQEMEVEPARKGEEEQKEQEEQEEEGAGPAEVKEEGSQLENGEAPEENENEESAGTDSGQELGSEARGLRSGTYGDRTESKAYGSVIHKCEDCGKEFTHTGNFKRHIRIHTGEKPFSCRECSKAFSDPAACKAHEKTHSPLKPYGCEECGKSYRLISLLNLHKKRHSGEARYRCEDCGKLFTTSGNLKRHQLVHSGEKPYQCDYCGRSFSDPTSKMRHLETHDTDKEHKCPHCDKKFNQVGNLKAHLKIHIADGPLKCRECGKQFTTSGNLKRHLRIHSGEKPYVCIHCQRQFADPGALQRHVRIHTGEKPCQCVMCGKAFTQASSLIAHVRQHTGEKPYVCERCGKRFVQSSQLANHIRHHDNIRPHKCSVCSKAFVNVGDLSKHIIIHTGEKPYLCDKCGRGFNRVDNLRSHVKTVHQGKAGIKILEPEEGSEVSVVTVDDMVTLATEALAATAVTQLTVVPVGAAVTADETEVLKAEISKAVKQVQEEDPNTHILYACDSCGDKFLDANSLAQHVRIHTAQALVMFQTDADFYQQYGPGGTWPAGQVLQAGELVFRPRDGAEGQPALAETSPTAPECPPPAE | binds | binds
2 | KLHL42 (protein, UniProt Q9P2K6 1-505) MSAEEMVQIRLEDRCYPVSKRKLIEQSDYFRALYRSGMREALSQEAGGPEVQQLRGLSAPGLRLVLDFINAGGAREGWLLGPRGEKGGGVDEDEEMDEVSLLSELVEAASFLQVTSLLQLLLSQVRLNNCLEMYRLAQVYGLPDLQEACLRFMVVHFHEVLCKPQFHLLGSPPQAPGDVSLKQRLREARMTGTPVLVALGDFLGGPLAPHPYQGEPPSMLRYEEMTERWFPLANNLPPDLVNVRGYGSAILDNYLFIVGGYRITSQEISAAHSYNPSTNEWLQVASMNQKRSNFKLVAVNSKLYAIGGQAVSNVECYNPEQDAWNFVAPLPNPLAEFSACECKGKIYVIGGYTTRDRNMNILQYCPSSDMWTLFETCDVHIRKQQMVSVEETIYIVGGCLHELGPNRRSSQSEDMLTVQSYNTVTRQWLYLKENTSKSGLNLTCALHNDGIYIMSRDVTLSTSLEHRVFLKYNIFSDSWEAFRRFPAFGHNLLVSSLYLPNKAET | binds | binds
3 | KLHL26 (protein, UniProt Q53HC5 1-615) MAESGGSSGGAGGGGAFGAGPGPERPNSTADKNGALKCTFSAPSHSTSLLQGLATLRAQGQLLDVVLTINREAFPAHKVVLAACSDYFRAMFTGGMREASQDVIELKGVSARGLRHIIDFAYSAEVTLDLDCVQDVLGAAVFLQMLPVVELCEEFLKAAMSVETCLNIGQMATTFSLASLRESVDAFTFRHFLQIAEEEDFLRLPLERLVFFLQSNRLQSCAEIDLFRAAVRWLQHDPARRPRASHVLCHIRFPLMQSSELVDSVQTLDIMVEDVLCRQYLLEAFNYQVLPFRQHEMQSPRTAVRSDVPSLVTFGGTPYTDSDRSVSSKVYQLPEPGARHFRELTEMEVGCSHTCVAVLDNFVYVAGGQHLQYRSGEGAVDACYRYDPHLNRWLRLQAMQESRIQFQLNVLCGMVYATGGRNRAGSLASVERYCPRRNEWGYACSLKRRTWGHAGAASGGRLYISGGYGISVEDKKALHCYDPVADQWEFKAPMSEPRVLHAMVGAGGRIYALGGRMDHVDRCFDVLAVEYYVPETDQWTSVSPMRAGQSEAGCCLLERKIYIVGGYNWRLNNVTGIVQVYNTDTDEWERDLHFPESFAGIACAPVLLPRAGTRR | binds | binds
4 | KLHL8 (protein, UniProt Q9P2G9 1-620) MASDSMSSKQARNHITKGKRQQQHQQIKNRSSISDGDGEDSFIFEANEAWKDFHGSLLRFYENGELCDVTLKVGSKLISCHKLVLACVIPYFRAMFLSEMAEAKQTLIEIRDFDGDAIEDLVKFVYSSRLTLTVDNVQPLLYAACILQVELVARACCEYMKLHFHPSNCLAVRAFAESHNRIDLMDMADQYACDHFTEVVECEDFVSVSPQHLHKLLSSSDLNIENEKQVYNAAIKWLLANPQHHSKWLDETLAQVRLPLLPVDFLMGVVAKEQIVKQNLKCRDLLDEARNYHLHLSSRAVPDFEYSIRTTPRKHTAGVLFCVGGRGGSGDPFRSIECYSINKNSWFFGPEMNSRRRHVGVISVEGKVYAVGGHDGNEHLGSMEMFDPLTNKWMMKASMNTKRRGIALASLGGPIYAIGGLDDNTCFNDVERYDIESDQWSTVAPMNTPRGGVGSVALVNHVYAVGGNDGMASLSSVERYDPHLDKWIEVKEMGQRRAGNGVSKLHGCLYVVGGFDDNSPLSSVERYDPRSNKWDYVAALTTPRGGVGIATVMGKIFAVGGHNGNAYLNTVEAFDPVLNRWELVGSVSHCRAGAGVAVCSCLTSQIRDVGHGSNNVVDCM | binds | binds
5 | KLHL20 (protein, UniProt Q9Y2M5 1-609) MEGKPMRRCTNIRPGETGMDVTSRCTLGDPNKLPEGVPQPARMPYISDKHPRQTLEVINLLRKHRELCDVVLVVGAKKIYAHRVILSACSPYFRAMFTGELAESRQTEVVIRDIDERAMELLIDFAYTSQITVEEGNVQTLLPAACLLQLAEIQEACCEFLKRQLDPSNCLGIRAFADTHSCRELLRIADKFTQHNFQEVMESEEFMLLPANQLIDIISSDELNVRSEEQVFNAVMAWVKYSIQERRPQLPQVLQHVRLPLLSPKFLVGTVGSDPLIKSDEECRDLVDEAKNYLLLPQERPLMQGPRTRPRKPIRCGEVLFAVGGWCSGDAISSVERYDPQTNEWRMVASMSKRRCGVGVSVLDDLLYAVGGHDGSSYLNSVERYDPKTNQWSSDVAPTSTCRTSVGVAVLGGFLYAVGGQDGVSCLNIVERYDPKENKWTRVASMSTRRLGVAVAVLGGFLYAVGGSDGTSPLNTVERYNPQENRWHTIAPMGTRRKHLGCAVYQDMIYAVGGRDDTTELSSAERYNPRTNQWSPVVAMTSRRSGVGLAVVNGQLMAVGGFDGTTYLKTIEVFDPDANTWRLYGGMNYRRLGGGVGVIKMTHCESHIW | binds | binds
6 | KLHL23 (protein, UniProt Q8NBE8 1-558) MALKGQEDYIYLFKDSTHPVDFLDAFRTFYLDGLFTDITLQCPSGIIFHCHRAVLAACSNYFKAMFTADMKEKFKNKIKLSGIHHDILEGLVNYAYTSQIEITKRNVQSLLEAADLLQFLSVKKACERFLVRHLDIDNCIGMHSFAEFHVCPELEKESRRILCSKFKEVWQQEEFLEISLEKFLFILSRKNLSVWKEEAIIEPVIKWTAHDVENRIECLYNLLSYINIDIDPVYLKTALGLQRSCLLTENKIRSLIYNALNPMHKEISQRSTATMYIIGGYYWHPLSEVHIWDPLTNVWIQGAEIPDYTRESYGVTCLGPNIYVTGGYRTDNIEALDTVWIYNSESDEWTEGLPMLNARYYHCAVTLGGCVYALGGYRKGAPAEEAEFYDPLKEKWIPIANMIKGVGNATACVLHDVIYVIGGHCGYRGSCTYDKVQSYNSDINEWSLITSSPHPEYGLCSVPFENKLYLVGGQTTITECYDPEQNEWREIAPMMERRMECGAVIMNGCIYVTGGYSYSKGTYLQSIEKYDPDLNKWEIVGNLPSAMRSHGCVCVYNV | binds | binds
